Article PMC12442679
Results are given in words; binding and its absence hold for the method and conditions named. In cells and extracts the contact can be indirect. Some binding calls cover weakened binding; strength is not graded here.

The chains behind the UniProt entries cited, without tags or fusion partners.
UniProt Q9TSV5: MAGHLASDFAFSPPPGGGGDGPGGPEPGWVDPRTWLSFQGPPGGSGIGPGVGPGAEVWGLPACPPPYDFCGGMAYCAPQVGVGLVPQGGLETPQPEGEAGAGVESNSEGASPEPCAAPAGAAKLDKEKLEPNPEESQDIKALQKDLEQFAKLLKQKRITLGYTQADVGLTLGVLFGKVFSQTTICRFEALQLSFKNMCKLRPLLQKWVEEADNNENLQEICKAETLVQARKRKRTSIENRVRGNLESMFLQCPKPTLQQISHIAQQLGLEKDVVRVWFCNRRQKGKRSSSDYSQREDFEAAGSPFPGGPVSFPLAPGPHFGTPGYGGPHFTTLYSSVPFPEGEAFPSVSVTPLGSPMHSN

Target: POU5F1 (pig (endogenous in pEPSCs)) (UniProt Q9TSV5)
Test: co-IP; endogenous POU5F1 in pEPSCs immunoprecipitated with a POU5F1 antibody; Western blot for FOXH1 and POU5F1

- binding: binds
B1: FOXH1 (FAST1, forkhead activin signal transducer 1) (protein, UniProt F1RSP3 1-354)
chain: MGPCSNPRLELPGGQSPSEPPKRRKKRYLRHDKPPYTYLAMIALVIQAAPSRRLKLAQIIRQVQAVFPFFRDDYEGWKDSIRHNLSSNRCFRKVPKDPAKPQAKGNFWAVDVSLIPAEALRLQNTALCRRWQSRGARGAFAKDLGPYVLHGRPYRPPSPQPQPCEGFSIKSLLGDSREGAPRSSPGRSGSQGSGEEEVPLPVLPSRRPPWPLCPLPGSLSAEGETSQGGTSRPEARAWPLHLLQGTPDPGGLAGGGHRASLWGQLPTSYLPIYTPNVVMPLAPLPPPSCPGCPPSTSTAYWRVAPETHGPPGLLWDLDALFQGVPPNKSIYDVWVSQPRDLAAPTPGWLLSDSL
